The values that follow come from patent US20240174765A1 (ACADEMIA SINICA, published 2024).

By UniProt entry, the sequences of proteins in these tests, tags left out.
UniProt P06733: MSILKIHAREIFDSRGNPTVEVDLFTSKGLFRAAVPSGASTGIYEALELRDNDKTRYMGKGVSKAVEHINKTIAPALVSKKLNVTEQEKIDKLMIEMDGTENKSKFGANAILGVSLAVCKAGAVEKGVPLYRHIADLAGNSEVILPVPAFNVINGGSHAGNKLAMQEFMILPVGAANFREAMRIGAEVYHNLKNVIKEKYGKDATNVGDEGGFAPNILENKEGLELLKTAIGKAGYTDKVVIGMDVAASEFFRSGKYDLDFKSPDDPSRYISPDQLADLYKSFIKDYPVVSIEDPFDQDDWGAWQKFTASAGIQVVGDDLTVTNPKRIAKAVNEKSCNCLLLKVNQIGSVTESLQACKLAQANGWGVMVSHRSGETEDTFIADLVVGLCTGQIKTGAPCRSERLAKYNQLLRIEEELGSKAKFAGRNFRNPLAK

In this assay the target is FLAG-tagged ENO1 (UniProt P06733). Briefly: flow cytometry on CL1-0 cells transfected with AS2-ENO1-FLAG or empty vector.

These are yes or no findings as the source states them, for the method shown. Some binding calls cover weakened binding; strength is not graded here.

B1: chimeric ENO1-22 (chENO1-22) (antibody, V domains shown)
VH: QVQLQQSGPEVVRPGVSVKISCKGSGYTFTDYAMHWVKQSHAKSLEWIGVISTYNGNTNYNQKFKGKATMTVDKSSSTAYMELARLTSEDSAIYYCARSPLRYWGQGTTLTVSS
VL: QIVLSQSPAILSASPGEKVTMTCRASSSVSYMHWYQQKPGSSPKPWIYATSNLASGVPARFSGSGSGTSYSLTISRVEAEDAATYYCQQWSSNPLTFGAGTKLELK
notes: Variable domain of anti-ENO1 mAb-22 cloned into a human IgG Fc vector; also called chimeric ENO1 mAb; chimeric ENO1 antibody
On to B1, for which the binding result is on record as “binds”.
